In patent US7700765B2, “DNA minor groove binding compounds” (University of Strathclyde, priority 2001, dated 2010):
For some of these results: At least one structure is not confirmed: it was looked up by name or label, or the drawing left a doubt. Some of these results come from one statement about several compounds together.

How the values were obtained:
duplex of AAATTATATTAT = experiment: DNA duplex melting temperature (Tm) measurements; assay type: binding
d(CGACTAGTCG)2 = experiment: n.m.r. study of binding to DNA duplexes; settings: complex with d(CGACTAGTCG)2

Row | Compound | increase in melting point (Tm) (duplex of AAATTATATTAT) | binding affinity by n.m.r. (narrow lines and strong cross-peaks) (d(CGACTAGTCG)2)
1 | CC(C)n1cc(NC(=O)c2cc(NC=O)cn2C)cc1C(=O)Nc1cc(C(=O)NCCCN(C)C)n(C)c1 [Example 2, N-[5-({[5-({[3-(Dimethylamino)propyl]amino}carbonyl)-1-methyl-1H-pyrrol-3-yl]amino}carbonyl)-1-isopropyl-1H-pyrrol-3-yl]-4-(formylamino)-1-methyl-1H-pyrrole-2-carboxamide] | greater than 10 °C | 
2 | CC(C)c1sc(NC(=O)c2cc(NC(=O)c3cc(NC=O)cn3C)cn2C)nc1C(=O)NCCCN(C)C [Example 3, N-[3-(Dimethylamino)propyl]-2-({[4-({[4-(formylamino)-1-methyl-1H-pyrrol-2-yl]carbonyl}amino)-1-methyl-1H-pyrrol-2-yl]carbonyl}amino)-5-isopropyl-1,3-thiazole-4-carboxamide] |  | high affinity
3 | CC(C)CCn1cc(NC(=O)c2cc(NC=O)cn2C)cc1C(=O)Nc1cc(C(=O)NCCCN(C)C)n(C)c1 [Example 10, N-[5-({[5-({[3-(Dimethylamino)propyl]amino}carbonyl)-1-methyl-1H-pyrrol-3-yl]amino}carbonyl)-1-isopentyl-1H-pyrrol-3-yl]-4-(formylamino)-1-methyl-1H-pyrrole-2-carboxamide] | greater than 10 °C | 
4 | CN(C)CCCNC(=O)c1cc(NC(=O)c2cc(NC(=O)c3cc(NC=O)cn3C)cn2CC2CC2)cn1C [Example 26, N-[1-(Cyclopropylmethyl)-5-({[5-({[3-(dimethylamino)propyl]amino}-carbonyl)-1-methyl-1H-pyrrol-3-yl]amino}carbonyl)-1H-pyrrol-3-yl]-4-(formylamino)-1-methyl-1H-pyrrole-2-carboxamide] | greater than 10 °C | 
